Test [1] deals with T1, human CLLD8 protein (human, UniProt Q96T68 1-719, limits assumed).
T1 sequence: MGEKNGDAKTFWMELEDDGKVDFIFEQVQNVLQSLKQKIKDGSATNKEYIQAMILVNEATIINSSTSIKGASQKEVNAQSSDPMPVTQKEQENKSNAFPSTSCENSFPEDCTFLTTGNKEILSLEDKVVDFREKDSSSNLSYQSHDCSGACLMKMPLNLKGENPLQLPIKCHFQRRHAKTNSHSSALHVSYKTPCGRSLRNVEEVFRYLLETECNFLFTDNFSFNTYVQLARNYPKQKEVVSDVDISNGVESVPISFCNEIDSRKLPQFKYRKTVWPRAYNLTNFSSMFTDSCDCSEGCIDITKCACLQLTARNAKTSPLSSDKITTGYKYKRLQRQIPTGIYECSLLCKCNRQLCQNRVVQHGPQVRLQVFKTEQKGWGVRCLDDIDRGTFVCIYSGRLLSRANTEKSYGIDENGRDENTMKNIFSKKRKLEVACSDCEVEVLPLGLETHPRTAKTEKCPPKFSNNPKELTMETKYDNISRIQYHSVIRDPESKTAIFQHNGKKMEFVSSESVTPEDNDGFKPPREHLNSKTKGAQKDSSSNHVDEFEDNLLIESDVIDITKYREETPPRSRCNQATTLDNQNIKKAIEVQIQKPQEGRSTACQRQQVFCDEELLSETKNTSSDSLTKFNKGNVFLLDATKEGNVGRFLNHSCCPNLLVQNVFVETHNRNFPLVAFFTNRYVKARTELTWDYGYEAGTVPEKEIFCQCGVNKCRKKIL
The test is described as follows: yeast two-hybrid.

For test [2], the target named is T1, human CLLD8 protein. The test is described as follows: yeast two-hybrid interaction profiling.
Test [3] deals with T1, human CLLD8 protein. The test is described as follows: yeast two-hybrid interaction profile compared with the functional profile.

These are yes or no findings as the source states them, for the method shown. Some results given as binding are weak or reduced against the parent protein; the word gives no strength.

The values that follow come from US20040014638A1 (RIGEL PHARMACEUTICALS, published 2004).

B1: peptide CL02A3 wt (peptide)
peptide: AMHGHHGWPWGMEQGCTPLG
For B1, the binding entry with human CLLD8 protein [1], in the test with human CLLD8 protein [2] and with human CLLD8 protein [3] was “binds” each time.

B2: peptide CL02A3GW (peptide)
peptide: AMHGHHAAPWGMEQGCTPLG
In the case of B2, the binding result with human CLLD8 protein [1] was “binds”.

B3: peptide CL02A3LG (peptide)
peptide: AMHGHHGWPWGMEQGCTPAA
On to B3, for which the binding result in the test with human CLLD8 protein [1] is reported as “binds”.
